The other results are listed elsewhere or left out.
Tests used:
Assay in all cases: log2 fold change, soluble protein after heating vs DMSO (PISA); higher = thermal stabilisation; K562 cells, 10 uM, 30 min; active = over 0.2 and 3.5 SD of the protein, either way, in both replicates (recomputed)
[1] = compound: COc1cc2nc(-c3cc(F)ccc3O)nc(N[C@@H]3CNC[C@H]3C(C)(C)O)c2cc1OC
Procedure, shortened: (§1)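 Soluble protein was defined as the supernatant after 21,000xg for 90 min. It came from K562 cells at 2×10^6 cells/mL given 10 μM compound for 30 min, heated in aliquots for 3 min across 48°C-58°C, pooled, and extracted in PBS with 0.5% NP-40 at 4°C, and was quantified by TMTpro 16plex LC-MS/MS with equalised channel sums. Thermal stability against control samples, from duplicates, is reported as log2 fold change.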

Sequences of proteins named here, by UniProt entry; tags and fusion partners are left off. A change or cut given only in a name is not applied to a line headed by its entry.
UniProt Q49AN0: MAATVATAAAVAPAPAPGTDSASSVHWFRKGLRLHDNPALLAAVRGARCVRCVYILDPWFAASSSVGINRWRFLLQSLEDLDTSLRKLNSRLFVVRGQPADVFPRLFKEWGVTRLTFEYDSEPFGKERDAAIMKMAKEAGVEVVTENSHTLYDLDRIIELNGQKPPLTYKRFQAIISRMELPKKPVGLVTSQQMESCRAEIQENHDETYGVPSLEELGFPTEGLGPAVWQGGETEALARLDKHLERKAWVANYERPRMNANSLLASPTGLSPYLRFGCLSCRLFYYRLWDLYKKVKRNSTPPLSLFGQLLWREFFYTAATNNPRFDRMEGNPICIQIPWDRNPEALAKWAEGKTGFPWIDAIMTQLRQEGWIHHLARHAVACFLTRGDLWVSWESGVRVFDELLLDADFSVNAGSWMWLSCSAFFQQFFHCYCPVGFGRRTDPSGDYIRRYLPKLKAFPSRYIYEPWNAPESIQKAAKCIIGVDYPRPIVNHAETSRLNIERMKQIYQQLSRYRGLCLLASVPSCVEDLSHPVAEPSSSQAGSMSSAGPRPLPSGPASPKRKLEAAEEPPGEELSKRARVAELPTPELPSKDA
UniProt Q5TA50: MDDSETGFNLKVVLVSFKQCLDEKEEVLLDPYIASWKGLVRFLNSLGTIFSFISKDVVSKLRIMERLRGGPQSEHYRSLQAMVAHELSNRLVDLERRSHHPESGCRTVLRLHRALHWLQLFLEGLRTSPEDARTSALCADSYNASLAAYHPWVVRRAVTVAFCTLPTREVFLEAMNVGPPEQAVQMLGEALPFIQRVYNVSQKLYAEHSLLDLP
UniProt Q96I36: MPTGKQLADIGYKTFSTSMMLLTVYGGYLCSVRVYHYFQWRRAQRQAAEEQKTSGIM
UniProt Q8N6G5: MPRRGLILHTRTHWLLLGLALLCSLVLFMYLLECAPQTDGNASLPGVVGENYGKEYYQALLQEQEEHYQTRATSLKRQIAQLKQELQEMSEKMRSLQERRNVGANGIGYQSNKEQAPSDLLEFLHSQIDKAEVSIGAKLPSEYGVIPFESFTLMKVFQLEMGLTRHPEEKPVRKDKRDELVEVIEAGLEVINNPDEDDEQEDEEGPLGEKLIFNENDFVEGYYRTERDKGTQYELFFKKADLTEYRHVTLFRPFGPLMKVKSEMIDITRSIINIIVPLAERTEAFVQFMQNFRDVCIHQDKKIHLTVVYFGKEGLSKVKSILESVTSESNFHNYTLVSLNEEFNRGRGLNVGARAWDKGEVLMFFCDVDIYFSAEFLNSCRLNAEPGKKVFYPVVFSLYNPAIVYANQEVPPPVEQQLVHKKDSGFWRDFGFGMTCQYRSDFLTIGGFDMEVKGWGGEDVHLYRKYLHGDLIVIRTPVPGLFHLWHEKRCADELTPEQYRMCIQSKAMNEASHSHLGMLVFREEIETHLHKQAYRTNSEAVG
UniProt P29373: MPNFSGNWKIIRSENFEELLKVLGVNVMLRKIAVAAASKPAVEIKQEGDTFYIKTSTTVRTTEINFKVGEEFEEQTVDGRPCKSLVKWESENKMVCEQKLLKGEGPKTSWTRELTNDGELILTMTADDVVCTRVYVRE
UniProt Q86T23: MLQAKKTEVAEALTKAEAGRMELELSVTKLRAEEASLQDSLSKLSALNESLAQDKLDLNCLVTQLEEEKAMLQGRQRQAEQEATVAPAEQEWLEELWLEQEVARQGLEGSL
UniProt P52943: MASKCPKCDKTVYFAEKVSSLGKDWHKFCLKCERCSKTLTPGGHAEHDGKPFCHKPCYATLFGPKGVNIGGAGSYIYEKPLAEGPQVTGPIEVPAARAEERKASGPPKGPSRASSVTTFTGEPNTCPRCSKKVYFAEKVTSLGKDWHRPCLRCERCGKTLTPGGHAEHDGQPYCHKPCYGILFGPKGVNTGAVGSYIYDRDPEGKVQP
UniProt Q9UBI1, whole entry, looked up: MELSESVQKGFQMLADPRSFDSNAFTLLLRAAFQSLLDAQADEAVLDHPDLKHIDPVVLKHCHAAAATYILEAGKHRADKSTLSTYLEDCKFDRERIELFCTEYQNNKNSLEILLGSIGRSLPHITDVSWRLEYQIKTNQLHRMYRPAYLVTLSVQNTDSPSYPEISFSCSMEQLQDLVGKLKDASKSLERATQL
UniProt P12111: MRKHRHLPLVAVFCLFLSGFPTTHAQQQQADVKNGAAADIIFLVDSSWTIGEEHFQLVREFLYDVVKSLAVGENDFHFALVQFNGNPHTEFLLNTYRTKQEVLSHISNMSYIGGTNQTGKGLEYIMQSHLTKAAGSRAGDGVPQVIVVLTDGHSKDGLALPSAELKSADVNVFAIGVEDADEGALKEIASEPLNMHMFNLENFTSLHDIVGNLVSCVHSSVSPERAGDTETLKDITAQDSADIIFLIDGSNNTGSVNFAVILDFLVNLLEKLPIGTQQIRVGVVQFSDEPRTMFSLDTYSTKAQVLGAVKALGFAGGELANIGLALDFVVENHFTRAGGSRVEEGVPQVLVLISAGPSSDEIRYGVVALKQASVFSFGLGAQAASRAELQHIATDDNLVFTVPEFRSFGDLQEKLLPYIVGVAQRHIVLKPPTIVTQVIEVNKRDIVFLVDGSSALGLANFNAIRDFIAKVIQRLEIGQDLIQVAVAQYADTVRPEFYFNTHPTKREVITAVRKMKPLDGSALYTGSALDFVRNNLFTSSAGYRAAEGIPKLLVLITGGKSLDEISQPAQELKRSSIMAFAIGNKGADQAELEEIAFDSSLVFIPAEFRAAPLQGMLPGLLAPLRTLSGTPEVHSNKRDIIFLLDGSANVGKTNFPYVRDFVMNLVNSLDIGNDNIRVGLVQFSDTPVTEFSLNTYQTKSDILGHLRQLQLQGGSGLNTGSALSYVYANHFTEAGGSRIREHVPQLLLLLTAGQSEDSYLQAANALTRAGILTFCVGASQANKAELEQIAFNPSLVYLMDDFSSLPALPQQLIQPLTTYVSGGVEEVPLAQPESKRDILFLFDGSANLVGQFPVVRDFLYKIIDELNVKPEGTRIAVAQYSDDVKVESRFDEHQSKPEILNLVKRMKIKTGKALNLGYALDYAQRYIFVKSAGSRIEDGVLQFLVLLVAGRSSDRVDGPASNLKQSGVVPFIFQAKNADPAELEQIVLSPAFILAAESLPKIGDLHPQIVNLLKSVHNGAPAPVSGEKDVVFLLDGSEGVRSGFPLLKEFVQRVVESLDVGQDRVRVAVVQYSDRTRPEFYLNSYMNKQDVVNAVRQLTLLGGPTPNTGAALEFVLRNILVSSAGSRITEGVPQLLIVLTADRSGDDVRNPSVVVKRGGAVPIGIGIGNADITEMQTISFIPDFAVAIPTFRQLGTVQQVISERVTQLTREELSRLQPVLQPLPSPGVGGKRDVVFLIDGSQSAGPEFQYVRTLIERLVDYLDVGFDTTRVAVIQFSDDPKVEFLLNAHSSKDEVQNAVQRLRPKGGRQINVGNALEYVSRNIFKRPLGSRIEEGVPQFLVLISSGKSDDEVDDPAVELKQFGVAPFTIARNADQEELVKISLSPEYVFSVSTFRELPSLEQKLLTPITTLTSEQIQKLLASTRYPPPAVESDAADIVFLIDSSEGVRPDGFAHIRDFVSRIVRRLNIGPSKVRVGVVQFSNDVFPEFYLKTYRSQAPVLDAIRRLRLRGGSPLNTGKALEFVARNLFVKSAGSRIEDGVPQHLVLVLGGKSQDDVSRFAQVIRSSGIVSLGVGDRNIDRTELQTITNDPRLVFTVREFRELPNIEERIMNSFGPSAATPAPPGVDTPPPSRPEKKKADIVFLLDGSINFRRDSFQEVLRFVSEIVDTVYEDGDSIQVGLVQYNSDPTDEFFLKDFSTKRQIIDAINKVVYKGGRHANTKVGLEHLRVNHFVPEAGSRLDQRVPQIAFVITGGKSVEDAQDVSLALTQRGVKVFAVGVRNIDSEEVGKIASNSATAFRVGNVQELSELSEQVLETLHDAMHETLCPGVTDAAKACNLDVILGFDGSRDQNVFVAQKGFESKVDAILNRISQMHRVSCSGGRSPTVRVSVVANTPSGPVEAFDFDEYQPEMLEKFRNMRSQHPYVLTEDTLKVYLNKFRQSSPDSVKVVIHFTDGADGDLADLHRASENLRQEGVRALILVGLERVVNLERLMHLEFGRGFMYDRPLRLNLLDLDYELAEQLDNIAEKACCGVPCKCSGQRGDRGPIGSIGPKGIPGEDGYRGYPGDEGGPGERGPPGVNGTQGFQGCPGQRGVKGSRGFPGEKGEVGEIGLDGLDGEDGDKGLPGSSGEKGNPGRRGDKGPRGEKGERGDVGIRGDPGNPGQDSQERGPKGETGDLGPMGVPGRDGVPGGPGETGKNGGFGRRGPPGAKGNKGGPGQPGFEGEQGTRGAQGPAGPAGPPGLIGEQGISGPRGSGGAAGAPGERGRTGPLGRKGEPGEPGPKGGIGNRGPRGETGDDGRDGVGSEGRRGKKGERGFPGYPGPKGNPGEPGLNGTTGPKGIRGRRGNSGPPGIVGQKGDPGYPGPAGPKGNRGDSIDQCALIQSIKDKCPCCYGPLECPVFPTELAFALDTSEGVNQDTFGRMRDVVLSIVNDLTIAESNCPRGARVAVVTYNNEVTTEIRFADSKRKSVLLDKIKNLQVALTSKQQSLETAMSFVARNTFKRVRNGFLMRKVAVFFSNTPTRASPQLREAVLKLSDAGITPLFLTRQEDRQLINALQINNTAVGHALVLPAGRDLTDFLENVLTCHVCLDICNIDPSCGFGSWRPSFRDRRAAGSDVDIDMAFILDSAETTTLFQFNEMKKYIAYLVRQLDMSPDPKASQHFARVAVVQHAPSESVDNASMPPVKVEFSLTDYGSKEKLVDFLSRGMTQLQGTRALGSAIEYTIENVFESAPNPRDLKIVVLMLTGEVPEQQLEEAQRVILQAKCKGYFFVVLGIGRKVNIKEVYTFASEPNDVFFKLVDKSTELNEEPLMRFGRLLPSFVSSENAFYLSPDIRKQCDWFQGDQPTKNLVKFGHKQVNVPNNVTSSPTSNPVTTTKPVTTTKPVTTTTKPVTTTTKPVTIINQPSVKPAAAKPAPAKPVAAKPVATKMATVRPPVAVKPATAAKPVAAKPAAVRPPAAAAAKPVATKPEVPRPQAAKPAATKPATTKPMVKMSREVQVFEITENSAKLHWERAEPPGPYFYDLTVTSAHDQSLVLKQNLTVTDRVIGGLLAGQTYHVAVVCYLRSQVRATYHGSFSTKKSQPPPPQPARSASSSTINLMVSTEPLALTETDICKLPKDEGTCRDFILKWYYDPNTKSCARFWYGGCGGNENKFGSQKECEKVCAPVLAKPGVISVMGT
UniProt O14810: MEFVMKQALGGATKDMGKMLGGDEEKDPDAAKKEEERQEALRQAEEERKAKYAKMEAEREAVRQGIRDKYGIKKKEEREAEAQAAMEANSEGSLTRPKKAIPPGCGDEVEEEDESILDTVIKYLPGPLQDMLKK
UniProt Q6UUV7: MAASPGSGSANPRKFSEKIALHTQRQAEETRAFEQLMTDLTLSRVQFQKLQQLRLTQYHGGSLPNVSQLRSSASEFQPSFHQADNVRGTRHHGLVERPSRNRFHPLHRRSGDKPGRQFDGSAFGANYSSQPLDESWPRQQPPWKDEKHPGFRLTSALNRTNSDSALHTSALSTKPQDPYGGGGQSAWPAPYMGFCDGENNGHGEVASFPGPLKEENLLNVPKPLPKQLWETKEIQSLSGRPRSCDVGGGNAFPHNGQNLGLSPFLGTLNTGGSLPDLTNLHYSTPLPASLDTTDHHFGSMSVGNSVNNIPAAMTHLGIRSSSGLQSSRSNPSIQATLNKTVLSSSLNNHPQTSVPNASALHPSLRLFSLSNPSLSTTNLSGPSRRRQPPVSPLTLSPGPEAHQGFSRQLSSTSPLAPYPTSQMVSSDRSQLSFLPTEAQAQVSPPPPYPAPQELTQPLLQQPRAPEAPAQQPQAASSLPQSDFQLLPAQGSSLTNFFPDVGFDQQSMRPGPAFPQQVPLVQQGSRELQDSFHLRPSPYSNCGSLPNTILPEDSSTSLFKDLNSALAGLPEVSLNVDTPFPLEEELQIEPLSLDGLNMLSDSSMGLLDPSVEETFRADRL
UniProt Q2VPA4, whole entry, looked up: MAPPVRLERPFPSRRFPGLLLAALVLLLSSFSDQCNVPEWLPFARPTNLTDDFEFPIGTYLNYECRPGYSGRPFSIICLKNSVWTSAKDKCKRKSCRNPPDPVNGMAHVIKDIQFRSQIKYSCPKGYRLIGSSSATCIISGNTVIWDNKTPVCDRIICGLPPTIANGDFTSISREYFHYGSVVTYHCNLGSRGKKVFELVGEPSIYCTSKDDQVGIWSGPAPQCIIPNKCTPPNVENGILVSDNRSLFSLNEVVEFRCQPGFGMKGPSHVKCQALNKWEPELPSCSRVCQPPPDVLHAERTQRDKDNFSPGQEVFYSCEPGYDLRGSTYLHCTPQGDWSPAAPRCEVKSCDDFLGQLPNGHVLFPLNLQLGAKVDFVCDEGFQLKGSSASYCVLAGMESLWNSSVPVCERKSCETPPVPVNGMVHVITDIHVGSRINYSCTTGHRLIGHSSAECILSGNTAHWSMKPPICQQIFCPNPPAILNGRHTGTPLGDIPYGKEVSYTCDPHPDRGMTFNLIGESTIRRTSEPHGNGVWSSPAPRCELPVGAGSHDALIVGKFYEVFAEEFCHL

[2] = compound: COc1cccc2cc(-c3nc([C@H]4CC[C@H](C(=O)O)CC4)n4ncnc(N)c34)[nH]c12
Procedure, shortened: as §1

lapatinib = compound: CS(=O)(=O)CCNCc1ccc(-c2ccc3ncnc(Nc4ccc(OCc5cccc(F)c5)c(Cl)c4)c3c2)o1 [lapatinib]
Procedure, shortened: as §1

sotrastaurin = compound: CN1CCN(c2nc(C3=C(c4c[nH]c5ccccc45)C(=O)NC3=O)c3ccccc3n2)CC1 [sotrastaurin]
Procedure, shortened: as §1

Tubastatin A = compound: CN1CCc2c(c3ccccc3n2Cc2ccc(C(=O)NO)cc2)C1 [Tubastatin A]
Procedure, shortened: as §1

[3] = compound: CNC(=O)C1=CC=CC=C1NC2=NC(=NC=C2Cl)NC3=C(C=C(C=C3)N4CCOCC4)OC
Procedure, shortened: as §1

defactinib = compound: CNC(=O)c1ccc(Nc2ncc(C(F)(F)F)c(NCc3nccnc3N(C)S(C)(=O)=O)n2)cc1 [defactinib]
Procedure, shortened: as §1

rucaparib = compound: CNCc1ccc(-c2[nH]c3cc(F)cc4c3c2CCNC4=O)cc1 [rucaparib]
Procedure, shortened: as §1

encorafenib = compound: COC(=O)N[C@@H](C)CNc1nccc(-c2cn(C(C)C)nc2-c2cc(Cl)cc(NS(C)(=O)=O)c2F)n1 [encorafenib]
Procedure, shortened: as §1

[4] = compound: COC(=O)[C@H](CCSC)NC(=O)C1=C(C=C(C=C1)NC[C@H](CS)N)C2=CC=CC=C2
Procedure, shortened: as §1

[5] = compound: COC1=CC=C(C=C1)CN2C=CC3=C2C=C(C=C3)C(=O)NO
Procedure, shortened: as §1

filanesib = compound: CON(C)C(=O)N1N=C(c2cc(F)ccc2F)S[C@@]1(CCCN)c1ccccc1 [filanesib]
Procedure, shortened: as §1

idasanutlin = compound: COc1cc(C(=O)O)ccc1NC(=O)[C@@H]1N[C@@H](CC(C)(C)C)[C@](C#N)(c2ccc(Cl)cc2F)[C@H]1c1cccc(Cl)c1F [idasanutlin]
Procedure, shortened: as §1

alisertib = compound: COc1cc(Nc2ncc3c(n2)-c2ccc(Cl)cc2C(c2c(F)cccc2OC)=NC3)ccc1C(=O)O [alisertib]
Procedure, shortened: as §1

gefitinib = compound: COc1cc2ncnc(Nc3ccc(F)c(Cl)c3)c2cc1OCCCN1CCOCC1 [gefitinib]
Procedure, shortened: as §1

zotarolimus = compound: CO[C@H]1C[C@@H]2CC[C@@H](C)[C@@](O)(O2)C(=O)C(=O)N2CCCC[C@H]2C(=O)O[C@H]([C@H](C)C[C@@H]2CC[C@H](n3cnnn3)[C@H](OC)C2)CC(=O)[C@H](C)/C=C(\C)[C@@H](O)[C@@H](OC)C(=O)[C@H](C)C[C@H](C)/C=C/C=C/C=C/1C [zotarolimus]
Procedure, shortened: as §1

pictilisib = compound: CS(=O)(=O)N1CCN(Cc2cc3nc(-c4cccc5[nH]ncc45)nc(N4CCOCC4)c3s2)CC1 [pictilisib]
Procedure, shortened: as §1

saracatinib = compound: CN1CCN(CCOc2cc(OC3CCOCC3)c3c(Nc4c(Cl)ccc5c4OCO5)ncnc3c2)CC1 [saracatinib]
Procedure, shortened: as §1

[6] = compound: CNc1nc(-c2ccc3c(N)n[nH]c3c2)cc(N2C[C@@H](C(=O)NC3CCCCC3)CC[C@H]2C)n1
Procedure, shortened: as §1

alvocidib = compound: CN1CC[C@H](c2c(O)cc(O)c3c(=O)cc(-c4ccccc4Cl)oc23)[C@H](O)C1 [alvocidib]
Procedure, shortened: as §1

Measured: log2 fold change

CSNK1A1 isoform 3 (UniProt P48729)
inactive: [1] -0.006 | [2] 0.091 | lapatinib 0.129

CRTC2 (UniProt Q53ET0)
active: [1] -0.509
inactive: sotrastaurin -0.09 | Tubastatin A -0.031 | [3] -0.269 | defactinib -0.218 | rucaparib 0.053 | encorafenib -0.026 | [4] -0.103 | [5] -0.004 | filanesib -0.019 | idasanutlin 0.086 | alisertib 0 | gefitinib -0.056 | [2] 0.066 | lapatinib 0.079

CPNE5 (UniProt Q9HCH3)
inactive: Tubastatin A 0.082 | [3] 0.049 | zotarolimus -0.102

COMMD1 (UniProt Q8N668)
inactive: sotrastaurin -0.038 | Tubastatin A -0.213 | [3] 0.119 | defactinib -0.151 | rucaparib 0.15 | encorafenib -0.028 | [4] 0.092 | [5] 0.054 | filanesib 0.06 | alisertib -0.151 | [1] 0.029 | gefitinib -0.01 | [2] -0.04 | lapatinib -0.029 | pictilisib 0.006

COL25A1 (UniProt Q9BXS0)
inactive: [3] -0.011

CRY2 (UniProt Q49AN0)
inactive: saracatinib -0.042 | Tubastatin A -0.037 | defactinib -0.014 | [6] 0.073 | [4] 0.015 | idasanutlin 0.199 | gefitinib 0.081

CRNN (UniProt Q9UBG3)
inactive: [3] -0.463 | alisertib 0.105 | [2] -0.12

CPTP (UniProt Q5TA50)
inactive: sotrastaurin -0.167 | [3] 0.03 | [5] -0.076 | filanesib -0.141 | alisertib 0.141 | [2] -0.267

COLEC11 isoform 10 (UniProt Q9BWP8)
inactive: saracatinib -0.274 | alvocidib -0.023 | defactinib -0.092 | [6] -0.109 | [4] -0.047 | [5] 0.041 | zotarolimus 0.011 | idasanutlin 0.134 | alisertib 0.042 | gefitinib 0.129 | [2] -0.006

CRABP1 (UniProt P29762)
inactive: defactinib 0.499 | [4] -0.017 | pictilisib 0.293

COX14 (UniProt Q96I36)
inactive: sotrastaurin -0.062 | alvocidib 0.075 | [3] 0.024 | rucaparib -0.117 | encorafenib 0.093 | [5] -0.233 | filanesib 0.004 | zotarolimus 0.088 | [1] -0.082 | gefitinib 0.089 | lapatinib 0.036 | pictilisib -0.149

CSNK1G2 (UniProt P78368)
inactive: sotrastaurin -0.163 | Tubastatin A -0.066 | rucaparib 0.044 | encorafenib -0.093 | [5] -0.063 | filanesib -0.064 | idasanutlin -0.035 | alisertib 0.029 | gefitinib -0.015 | [2] -0.274 | pictilisib 0.076

CRY1 (UniProt Q16526)
inactive: defactinib -0.025 | [4] -0.104 | [1] -0.09 | gefitinib 0.102 | lapatinib 0.038 | pictilisib 0.315

CSGALNACT2 (UniProt Q8N6G5)
inactive: alvocidib -0.155 | [5] 0.035 | zotarolimus -0.076 | idasanutlin -0.026 | gefitinib -0.075

CRABP2 (UniProt P29373)
inactive: saracatinib 0.029 | [6] -0.072 | alisertib 0.97 | [2] -0.217 | pictilisib -0.098

CROCCP2 (UniProt Q86T23)
inactive: [3] -0.057 | rucaparib -0.187 | encorafenib -0.086

CRIP2 isoform 2 (UniProt P52943)
inactive: sotrastaurin 0.039 | alvocidib 0.231 | Tubastatin A 0.016 | [3] 0.028 | defactinib 0.024 | rucaparib -0.074 | encorafenib -0.157 | [4] 0.021 | [5] -0.128 | filanesib -0.057 | zotarolimus -0.113 | idasanutlin 0.107 | [1] -0.048 | gefitinib -0.08 | lapatinib -0.006

3 records picked at random from the list so far:
CROCCP2 (UniProt Q86T23)
inactive: [3] -0.057 | rucaparib -0.187 | encorafenib -0.086

CSGALNACT2 (UniProt Q8N6G5)
inactive: alvocidib -0.155 | [5] 0.035 | zotarolimus -0.076 | idasanutlin -0.026 | gefitinib -0.075

CSNK1G2 (UniProt P78368)
inactive: sotrastaurin -0.163 | Tubastatin A -0.066 | rucaparib 0.044 | encorafenib -0.093 | [5] -0.063 | filanesib -0.064 | idasanutlin -0.035 | alisertib 0.029 | gefitinib -0.015 | [2] -0.274 | pictilisib 0.076

(next part)

COMMD3 (UniProt Q9UBI1)
inactive: saracatinib -0.032 | alvocidib -0.158 | Tubastatin A -0.159 | defactinib -0.031 | rucaparib 0.064 | [6] 0.033 | encorafenib 0.063 | [4] 0.051 | [5] 0.021 | zotarolimus 0.153 | idasanutlin -0.028 | alisertib 0.102 | [1] -0.179 | gefitinib -0.055 | [2] 0.047 | lapatinib 0.006

CPA4 (UniProt Q9UI42)
inactive: Tubastatin A 0.102 | defactinib -0.333 | rucaparib -0.15 | encorafenib -0.271 | [4] -0.193 | idasanutlin 0.34

COP1 (UniProt Q8NHY2)
inactive: alvocidib -0.048 | zotarolimus 0.02 | idasanutlin 0.059 | [1] -0.096 | lapatinib 0.124

COL6A3 (UniProt P12111)
inactive: [3] 0.064 | rucaparib -0.081 | encorafenib -0.042 | [1] 0.089 | lapatinib -0.237 | pictilisib -0.291

CREB3L2 (UniProt Q70SY1)
inactive: Tubastatin A 0.282 | [3] -0.19 | defactinib -0.039 | [4] -0.172 | [5] 0.584 | zotarolimus 0.042 | idasanutlin 0.045 | alisertib -0.022 | gefitinib -0.154 | [2] 0.176

CPLX1 (UniProt O14810)
inactive: saracatinib -0.09 | [3] -0.019 | defactinib 0.074 | [6] -0.339 | [4] 0.108 | [5] 0.039 | idasanutlin -0.2 | alisertib -0.153 | [2] 0.229 | pictilisib 0.13

CRAT (UniProt P43155)
inactive: alvocidib 0.465 | zotarolimus 0.035 | [1] 0.401 | lapatinib -0.025

CRTC3 (UniProt Q6UUV7)
inactive: sotrastaurin 0.044 | Tubastatin A -0.109 | defactinib 0.025 | [4] -0.06 | filanesib 0.015 | zotarolimus -0.059 | alisertib 0.202 | [2] -0.107 | lapatinib 0.078
active: [1] -0.86

CRYBB1 (UniProt P53674)
inactive: saracatinib 0.136 | [3] 0.868 | [6] 0.256 | [5] -0.065

CPSF4 (UniProt O95639)
inactive: idasanutlin 0.392 | alisertib 0.486 | gefitinib -0.034 | [2] -0.071 | pictilisib 0.023

CR1L (UniProt Q2VPA4)
inactive: [3] -0.036

CP (UniProt P00450)
inactive: [1] -0.257 | lapatinib -0.179

COMMD3-BMI1 (UniProt R4GMX3)
inactive: sotrastaurin -0.024 | Tubastatin A -0.074 | filanesib -0.08 | zotarolimus -0.12 | idasanutlin 0.093 | gefitinib -0.029 | lapatinib -0.445 | pictilisib 0.135
active: [1] 0.519

CRADD (UniProt P78560)
inactive: alvocidib -0.305 | Tubastatin A 0.163 | [3] -0.01 | defactinib -0.07 | [4] 0.102 | [5] -0.156 | zotarolimus 0.305 | idasanutlin -0.053

CS (UniProt F8VU34)
inactive: rucaparib 0.268 | encorafenib 0.158

CPN1 (UniProt P15169)
inactive: saracatinib 0.139 | Tubastatin A -0.081 | [3] 0.153 | defactinib -0.029 | [6] 0.058 | [4] 0.156

CORO6 isoform 5 (UniProt Q6QEF8)
inactive: sotrastaurin -0.005 | Tubastatin A -0.003 | defactinib 0.115 | [4] 0.043 | [5] 0.021 | filanesib -0.315 | idasanutlin 0.059

From the supplement of paper PMC10849652
